Results on 1 molecule are retold here after paper PMC11726933.

No constants are given. Whether binding was seen depends on the method and setting. Binding seen in cells or lysates may run through a third protein. Some results given as binding are weak or reduced against the parent protein; the word gives no strength.

The target of this assay is T1, YTHDF2 (human (endogenous in HeLa and MDA-MB-231)) (UniProt Q9Y5A9).
T1 sequence: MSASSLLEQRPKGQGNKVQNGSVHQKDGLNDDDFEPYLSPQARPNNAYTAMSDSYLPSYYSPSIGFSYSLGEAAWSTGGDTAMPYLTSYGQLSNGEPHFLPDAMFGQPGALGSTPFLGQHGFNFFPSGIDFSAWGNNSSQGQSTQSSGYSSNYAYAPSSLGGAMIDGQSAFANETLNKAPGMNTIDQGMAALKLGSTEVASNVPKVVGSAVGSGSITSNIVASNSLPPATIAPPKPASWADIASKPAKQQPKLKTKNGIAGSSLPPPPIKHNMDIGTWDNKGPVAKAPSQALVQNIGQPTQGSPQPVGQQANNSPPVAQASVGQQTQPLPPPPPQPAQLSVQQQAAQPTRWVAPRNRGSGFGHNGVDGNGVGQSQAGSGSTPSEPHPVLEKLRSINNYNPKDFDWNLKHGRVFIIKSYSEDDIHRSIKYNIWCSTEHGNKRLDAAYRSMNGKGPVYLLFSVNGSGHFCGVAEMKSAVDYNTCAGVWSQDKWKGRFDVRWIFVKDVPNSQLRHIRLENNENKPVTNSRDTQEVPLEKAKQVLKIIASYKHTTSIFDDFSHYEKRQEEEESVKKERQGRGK
Briefly: co-IP; protein lysates of HeLa and MDA-MB-231 cells immunoprecipitated with YTHDF2 antibodies; Dis3L2 checked in the precipitate.

B1: 3′-5′ exoribonuclease Dis3L2 (enzyme, UniProt Q8IYB7 1-885)
chain: MSHPDYRMNLRPLGTPRGVSAVAGPHDIGASPGDKKSKNRSTRGKKKSIFETYMSKEDVSEGLKRGTLIQGVLRINPKKFHEAFIPSPDGDRDIFIDGVVARNRALNGDLVVVKLLPEEHWKVVKPESNDKETEAAYESDIPEELCGHHLPQQSLKSYNDSPDVIVEAQFDGSDSEDGHGITQNVLVDGVKKLSVCVSEKGREDGDAPVTKDETTCISQDTRALSEKSLQRSAKVVYILEKKHSRAATGFLKLLADKNSELFRKYALFSPSDHRVPRIYVPLKDCPQDFVARPKDYANTLFICRIVDWKEDCNFALGQLAKSLGQAGEIEPETEGILTEYGVDFSDFSSEVLECLPQGLPWTIPPEEFSKRRDLRKDCIFTIDPSTARDLDDALSCKPLADGNFKVGVHIADVSYFVPEGSDLDKVAAERATSVYLVQKVVPMLPRLLCEELCSLNPMSDKLTFSVIWTLTPEGKILDEWFGRTIIRSCTKLSYEHAQSMIESPTEKIPAKELPPISPEHSSEEVHQAVLNLHGIAKQLRQQRFVDGALRLDQLKLAFTLDHETGLPQGCHIYEYRESNKLVEEFMLLANMAVAHKIHRAFPEQALLRRHPPPQTRMLSDLVEFCDQMGLPVDFSSAGALNKSLTQTFGDDKYSLARKEVLTNMCSRPMQMALYFCSGLLQDPAQFRHYALNVPLYTHFTSPIRRFADVLVHRLLAAALGYRERLDMAPDTLQKQADHCNDRRMASKRVQELSTSLFFAVLVKESGPLESEAMVMGILKQAFDVLVLRYGVQKRIYCNALALRSHHFQKVGKKPELTLVWEPEDMEQEPAQQVITIFSLVEVVLQAESTALKYSAILKRPGTQGHLGPEKEEEESDGEPEDSSTS
As for B1, the binding result is recorded as “binds”.
